Reference: article PMC12152124
Like-named read-outs stand apart in the source and are kept apart here. Results are given in words; binding and its absence hold for the method and conditions named. Binding seen in cells or lysates may run through a third protein. Here binding means that the protein was enriched with, or labelled near, the bait; the list need not be complete. Sequences can lack the tags named with a protein.

The chains behind the UniProt entries cited, without tags or fusion partners.
UniProt P16892: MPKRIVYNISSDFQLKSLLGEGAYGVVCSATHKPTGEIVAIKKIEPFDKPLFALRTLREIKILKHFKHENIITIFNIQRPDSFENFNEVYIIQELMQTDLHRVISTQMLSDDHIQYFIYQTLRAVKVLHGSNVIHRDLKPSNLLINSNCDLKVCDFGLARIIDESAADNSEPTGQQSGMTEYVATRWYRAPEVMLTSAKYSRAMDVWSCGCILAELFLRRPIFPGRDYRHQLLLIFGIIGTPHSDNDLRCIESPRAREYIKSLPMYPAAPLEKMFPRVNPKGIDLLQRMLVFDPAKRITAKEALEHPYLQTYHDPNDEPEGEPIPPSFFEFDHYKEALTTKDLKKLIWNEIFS

T1: Tda1-3HA (C-terminally 3xHA-tagged Tda1) (S. cerevisiae) (UniProt Q03533)
T1 sequence: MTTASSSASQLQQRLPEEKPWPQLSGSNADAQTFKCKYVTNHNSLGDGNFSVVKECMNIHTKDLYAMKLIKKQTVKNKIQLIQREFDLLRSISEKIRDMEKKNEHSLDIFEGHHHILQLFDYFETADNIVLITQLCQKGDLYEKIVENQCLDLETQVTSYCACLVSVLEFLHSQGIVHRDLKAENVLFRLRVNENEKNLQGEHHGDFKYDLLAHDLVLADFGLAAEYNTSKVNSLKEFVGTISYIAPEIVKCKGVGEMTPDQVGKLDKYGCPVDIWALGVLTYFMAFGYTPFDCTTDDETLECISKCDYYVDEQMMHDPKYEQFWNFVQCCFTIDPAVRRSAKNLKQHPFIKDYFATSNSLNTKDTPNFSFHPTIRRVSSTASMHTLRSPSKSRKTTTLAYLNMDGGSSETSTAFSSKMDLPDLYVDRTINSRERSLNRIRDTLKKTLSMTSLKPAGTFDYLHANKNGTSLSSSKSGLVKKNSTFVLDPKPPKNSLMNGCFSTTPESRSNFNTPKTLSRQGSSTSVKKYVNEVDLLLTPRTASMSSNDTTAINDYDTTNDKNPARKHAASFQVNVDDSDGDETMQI


How the values were obtained:
[1] = target: T1, Tda1-3HA (C-terminally 3xHA-tagged Tda1) (S. cerevisiae); experiment: affinity purification with mass spectrometry; Tda1 immunoprecipitated from cells cultured in low-glucose medium; associated proteins separated by SDS-PAGE, digested in gel, nano-LC-MS/MS
[2] = target: T1, Tda1-3HA (C-terminally 3xHA-tagged Tda1) (S. cerevisiae); experiment: as above; remark: listed apart in the source

Molecule	binding [1]	binding [2]
Fus3 (from UniProt P16892 1-353) (enzyme)	binds	
Mck1 (enzyme, UniProt P21965 1-375) MSTEEQNGVPLQRGSEFIADDVTSNKSNNTRRMLVKEYRKIGRGAFGTVVQAYLTQDKKNWLGPFAIKKVPAHTEYKSRELQILRIADHPNIVKLQYFFTHLSPQDNKVYQHLAMECLPETLQIEINRYVTNKLEMPLKHIRLYTYQIARGMLYLHGLGVCHRDIKPSNVLVDPETGVLKICDFGSAKKLEHNQPSISYICSRFYRAPELIIGCTQYTTQIDIWGLGCVMGEMLIGKAIFQGQEPLLQLREIAKLLGPPDKRFIFFSNPAYDGPLFSKPLFSGSSQQRFEKYFGHSGPDGIDLLMKILVYEPQQRLSPRRILAHQFFNELRNDDTFLPRGFTEPIKLPNLFDFNDFELQILGEFADKIKPTKVAE		binds
Kss1 (enzyme, UniProt P14681 1-368) MARTITFDIPSQYKLVDLIGEGAYGTVCSAIHKPSGIKVAIKKIQPFSKKLFVTRTIREIKLLRYFHEHENIISILDKVRPVSIDKLNAVYLVEELMETDLQKVINNQNSGFSTLSDDHVQYFTYQILRALKSIHSAQVIHRDIKPSNLLLNSNCDLKVCDFGLARCLASSSDSRETLVGFMTEYVATRWYRAPEIMLTFQEYTTAMDIWSCGCILAEMVSGKPLFPGRDYHHQLWLILEVLGTPSFEDFNQIKSKRAKEYIANLPMRPPLPWETVWSKTDLNPDMIDLLDKMLQFNPDKRISAAEALRHPYLAMYHDPSDEPEYPPLNLDDEFWKLDNKIMRPEEEEEVPIEMLKDMLYDELMKTME		binds
Hog1 (enzyme, UniProt P32485 1-435) MTTNEEFIRTQIFGTVFEITNRYNDLNPVGMGAFGLVCSATDTLTSQPVAIKKIMKPFSTAVLAKRTYRELKLLKHLRHENLICLQDIFLSPLEDIYFVTELQGTDLHRLLQTRPLEKQFVQYFLYQILRGLKYVHSAGVIHRDLKPSNILINENCDLKICDFGLARIQDPQMTGYVSTRYYRAPEIMLTWQKYDVEVDIWSAGCIFAEMIEGKPLFPGKDHVHQFSIITDLLGSPPKDVINTICSENTLKFVTSLPHRDPIPFSERFKTVEPDAVDLLEKMLVFDPKKRITAADALAHPYSAPYHDPTDEPVADAKFDWHFNDADLPVDTWRVMMYSEILDFHKIGGSDGQIDISATFDDQVAAATAAAAQAQAQAQAQVQLNMAAHSHNGAGTTGNDHSDIAGGNKVSDHVAANDTITDYGNQAIQYANEFQQ		binds
Rim11 (enzyme, UniProt P38615 1-370) MNIQSNNSPNLSNNIVSKQVYYAHPPPTIDPNDPVQISFPTTEVVGHGSFGVVFATVIQETNEKVAIKKVLQDKRFKNRELEIMKMLSHINIIDLKYFFYERDSQDEIYLNLILEYMPQSLYQRLRHFVHQRTPMSRLEIKYYMFQLFKSLNYLHHFANVCHRDIKPQNLLVDPETWSLKLCDFGSAKQLKPTEPNVSYICSRYYRAPELIFGATNYTNQIDIWSSGCVMAELLLGQPMFPGESGIDQLVEIIKILGTPSKQEICSMNPNYMEHKFPQIKPIPLSRVFKKEDDQTVEFLADVLKYDPLERFNALQCLCSPYFDELKLDDGKINQITTDLKLLEFDENVELGHLSPDELSSVKKKLYPKSK		binds
Slt2 (enzyme, UniProt Q00772 1-484) MADKIERHTFKVFNQDFSVDKRFQLIKEIGHGAYGIVCSARFAEAAEDTTVAIKKVTNVFSKTLLCKRSLRELKLLRHFRGHKNITCLYDMDIVFYPDGSINGLYLYEELMECDMHQIIKSGQPLTDAHYQSFTYQILCGLKYIHSADVLHRDLKPGNLLVNADCQLKICDFGLARGYSENPVENSQFLTEYVATRWYRAPEIMLSYQGYTKAIDVWSAGCILAEFLGGKPIFKGKDYVNQLNQILQVLGTPPDETLRRIGSKNVQDYIHQLGFIPKVPFVNLYPNANSQALDLLEQMLAFDPQKRITVDEALEHPYLSIWHDPADEPVCSEKFEFSFESVNDMEDLKQMVIQEVQDFRLFVRQPLLEEQRQLQLQQQQQQQQQQQQQQQQPSDVDNGNAAASEENYPKQMATSNSVAPQQESFGIHSQNLPRHDADFPPRPQESMMEMRPATGNTADIPPQNDNGTLLDLEKELEFGLDRKYF		binds
Mrk1 (enzyme, UniProt P50873 1-501) MTDVLRSLVRKISFNNSDNLQLKHKTSIQSNTALEKKKRKPDTIKKVSDVQVHHTVPNFNNSSEYINDIENLIISKLIDGGKEGIAVDHIEHANISDSKTDGKVANKHENISSKLSKEKVEKMINFDYRYIKTKERTIHKRVYKHDRKTDVDRKNHGGTIDISYPTTEVVGHGSFGVVVTTVIIETNQKVAIKKVLQDRRYKNRELETMKMLCHPNTVGLQYYFYEKDEEDEVYLNLVLDYMPQSLYQRLRHFVNLKMQMPRVEIKFYAYQLFKALNYLHNVPRICHRDIKPQNLLVDPTTFSFKICDFGSAKCLKPDQPNVSYICSRYYRAPELMFGATNYSNQVDVWSSACVIAELLLGKPLFSGESGIDQLVEIIKIMGIPTKDEISGMNPNYEDHVFPNIKPITLAEIFKAEDPDTLDLLTKTLKYHPCERLVPLQCLLSSYFDETKRCDTDTYVKAQNLRIFDFDVETELGHVPLVERPAIEERLKHFVSAPSSSL		binds
